Assay results published in patent US10829452B2, “Histone methyltransferase inhibitors” (GLOBAL BLOOD THERAPEUTICS, INC., priority 2016, dated 2020).
Certain results were filed several times, with different values. This is not the full list of results. There may be further records. The values listed for one entry appear to be repeats on other runs, samples or individuals.

Protein sequences, listed by entry. Tags and fused reporters are not part of them.
UniProt Q96KQ7, whole entry: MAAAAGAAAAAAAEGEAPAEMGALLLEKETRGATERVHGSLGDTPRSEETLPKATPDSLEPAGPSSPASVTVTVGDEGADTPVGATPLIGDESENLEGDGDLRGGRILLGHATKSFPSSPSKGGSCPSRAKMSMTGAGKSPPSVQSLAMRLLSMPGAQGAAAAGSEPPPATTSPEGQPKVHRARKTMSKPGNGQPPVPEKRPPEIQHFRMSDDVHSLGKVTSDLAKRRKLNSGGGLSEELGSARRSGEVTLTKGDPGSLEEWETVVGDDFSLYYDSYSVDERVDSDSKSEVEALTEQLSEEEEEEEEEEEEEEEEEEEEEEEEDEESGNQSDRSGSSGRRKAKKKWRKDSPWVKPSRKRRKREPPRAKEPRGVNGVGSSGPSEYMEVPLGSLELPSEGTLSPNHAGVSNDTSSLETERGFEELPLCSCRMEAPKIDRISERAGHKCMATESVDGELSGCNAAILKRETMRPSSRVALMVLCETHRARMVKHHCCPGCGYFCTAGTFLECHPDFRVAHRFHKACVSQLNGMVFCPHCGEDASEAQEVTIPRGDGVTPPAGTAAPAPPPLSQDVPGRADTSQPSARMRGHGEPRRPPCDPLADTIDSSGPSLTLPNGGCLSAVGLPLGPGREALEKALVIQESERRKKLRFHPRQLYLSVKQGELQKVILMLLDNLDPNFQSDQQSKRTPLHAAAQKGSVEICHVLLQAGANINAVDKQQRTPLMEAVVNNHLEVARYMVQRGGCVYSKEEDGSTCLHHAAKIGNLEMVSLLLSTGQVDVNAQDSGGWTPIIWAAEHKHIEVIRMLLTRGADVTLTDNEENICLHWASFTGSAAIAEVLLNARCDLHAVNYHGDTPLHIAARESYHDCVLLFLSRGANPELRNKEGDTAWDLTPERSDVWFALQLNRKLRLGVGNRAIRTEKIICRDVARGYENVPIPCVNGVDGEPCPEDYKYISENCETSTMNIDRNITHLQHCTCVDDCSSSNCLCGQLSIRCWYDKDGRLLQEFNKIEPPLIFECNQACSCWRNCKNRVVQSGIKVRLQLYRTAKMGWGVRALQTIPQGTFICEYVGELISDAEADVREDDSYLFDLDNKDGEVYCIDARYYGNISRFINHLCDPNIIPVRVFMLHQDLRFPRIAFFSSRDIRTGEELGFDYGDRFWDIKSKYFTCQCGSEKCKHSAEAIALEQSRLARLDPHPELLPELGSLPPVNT

Biological target: G9a (Homo sapiens, UniProt Q96KQ7)
Test: G9a AlphaLISA enzymatic activity assay
Conditions: read-out: G9a in (uM) (IC50, concentration that produced 50% inhibition); 0.15 nM G9a, 15 uM S-adenosyl-methionine, 100 nM biotinylated histone 3 peptide (1-21), 1 hour at room temperature; tested form: formate; Formate Salt
Text: The G9a AlphaLISA assay was used to detect the methyl modifications of a biotinylated histone H3 peptide by the compounds. These modifications are done by the histone methyl transferase activity of the G9a enzyme. The assay consists of reading a chemiluminescent signal at 615 nm; this signal is generated by a laser excitation at 680 nm that transfers a reactive singlet oxygen between the donor beads and acceptor beads. Donor beads are streptavidin conjugated and bind to the biotin on the peptide. Acceptor beads are conjugated with an antibody that recognizes the specific G9a methyl mark on the peptide. If there is a methyl mark on the peptide, the acceptor beads will bind to the peptide. Upon binding, the acceptor beads will be in close proximity (<200 nm) of the donor beads and when the donor beads are excited, the transfer of the oxygen can occur and a strong signal will be generated. […]
For the assay, the following buffer was used to set up reactions: 50 mM Tris-HCl pH9, 50 mM NaCl, 0.01% Tween-20 and 1 mM DTT (added fresh prior to starting the reactions). […] Signal is detected in an EnVision plate reader in Alpha mode (see ACS Med Chem Lett. 2014 Jan. 2; 5(2):205-9. doi: 10.1021/m1400496h. eCollection 2014. Discovery and development of potent and selective inhibitors of histone methyltransferase g9a.) […]

COc1cc2c3c(c(NC4CCCC(O)C4)nc2cc1OCCCN1CCCC1)CCC3 (racemic)
IC50: 73 nM and 160 nM
